PubChem BioAssay AID720703 – Peter MacCallum Cancer Centre, 2013

Assay: 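Find kinases that boost or dampen angiotensin II-triggered EGFR transactivation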 (primary screen)
Cells: immortalised, SV40-transformed mammary epithelial cells from human, with stable expression of tagged AT1R
Reagents: siRNA pool against human genes, 40 nM siRNA pool per well
Timing: 72 h from transfection to lysis and read-out
Challenge: angiotensin II stimulation (dose and duration not given); EGFR inhibitor AG1478 also listed
Detection: 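AlphaScreen bead assay of phosphorylated ERK1/2 in cell lysates, corrected for well confluency, converted to robust z-scores and averaged across two technical replicate plates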
Reading the numbers: phospho-ERK z-score: higher = more ERK phosphorylation after angiotensin II, relative to plate
Rule for the call: 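Pools were ordered by robust z-score and 50 top-ranked pools, whether they raised or lowered the signal, were chosen for secondary testing; no numeric threshold was reported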
Meaning of the calls: active = picked for secondary screen; inactive = not picked
Here is an unselected part of 714 reagents. In the full data, 50 (7%) were called active. 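Chosen pools sit at both extremes, so both low and high scores count as candidates; some pools appear more than once.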 The numbers tell different reagents against one gene apart.

gene knocked down | reagent | phospho-ERK z-score, replicate mean | outcome
ILK | 1 | -0.82 | inactive
ILK | 2 | 0.9 | inactive
STRADA | 1 | 5.24 | active
EPHB6 | 1 | 0.77 | inactive
SRMS | 1 | 0.49 | inactive
RIPK2 | 1 | -0.4 | inactive
EFNA3 | 1 | 0.6 | inactive
MAP4K1 | 1 | -0.57 | inactive
WNK4 | 1 | -0.34 | inactive
PANK1 | 1 | 0.18 | inactive
BRAF | 1 | 2.58 | inactive
CHEK2 | 1 | -0.22 | inactive
PCK1 | 1 | 0.07 | inactive
RPS6KA1 | 1 | -0.4 | inactive
PIM1 | 1 | 0.7 | inactive
HIPK2 | 1 | 0.25 | inactive
CAMK1 | 1 | -0.82 | inactive
DAPK3 | 1 | 0.99 | inactive
TAB1 | 1 | -0.96 | inactive
GRK1 | 1 | -1.29 | active
TSKS | 1 | 0.79 | inactive
PRPS2 | 1 | 0.28 | inactive
CMPK1 | 1 | 2.25 | inactive
PRKD3 | 1 | 0.69 | inactive
DYRK4 | 1 | -0.75 | inactive
NRK | 1 | 0.37 | inactive
MAPK7 | 1 | -0.47 | inactive
ACVRL1 | 1 | 0.66 | inactive
PXK | 1 | 0.96 | inactive
MAPK11 | 1 | 0.49 | inactive
ALPK2 | 1 | 0.22 | inactive
ABL2 | 1 | 1.45 | inactive
ACVR1 | 1 | 0.44 | inactive
MAP3K21 | 1 | 0.18 | inactive
AURKC | 1 | 0.66 | inactive
NAGK | 1 | 1.91 | inactive
NTRK1 | 1 | 1.45 | inactive
PDK4 | 1 | -0.88 | inactive
ROS1 | 1 | -0.23 | inactive
LMTK2 | 1 | 0.36 | inactive
PLK3 | 1 | -1.32 | active

The list goes on; the last 5 above are carried over.
gene knocked down | reagent | phospho-ERK z-score, replicate mean | outcome
NTRK1 | 1 | 1.45 | inactive
PDK4 | 1 | -0.88 | inactive
ROS1 | 1 | -0.23 | inactive
LMTK2 | 1 | 0.36 | inactive
PLK3 | 1 | -1.32 | active
NEK7 | 1 | -0.76 | inactive
ROR2 | 1 | -0.24 | inactive
MPP2 | 1 | 0.09 | inactive
PDGFRL | 1 | -0.56 | inactive
DAPK2 | 1 | 0.77 | inactive
PKIB | 1 | 1.12 | inactive
CRIM1 | 1 | 0.18 | inactive
TRIB1 | 1 | 1.05 | inactive
CDKN2D | 1 | 1.66 | inactive
MINK1 | 1 | 0.32 | inactive
GRK7 | 1 | 1.2 | inactive
FGFR1 | 1 | -0.22 | inactive
RIOK2 | 1 | -0.87 | inactive
RPS6KA3 | 1 | 0.54 | inactive
CAMK2N1 | 1 | 0.02 | inactive
CHKA | 1 | 3.88 | active
FLT3 | 1 | -4.88 | active
ATR | 1 | -0.78 | inactive
CDKL3 | 1 | 0.66 | inactive
LIMK2 | 1 | 1.35 | inactive
CLK4 | 1 | -0.36 | inactive
UHMK1 | 1 | 0.76 | inactive
HIPK3 | 1 | 4.01 | active
PRKACA | 1 | 0.03 | inactive
FER | 1 | 0.23 | inactive
KDR | 1 | -0.48 | inactive
TESK2 | 1 | -0.11 | inactive
SIK3 | 1 | 0.87 | inactive
STK38L | 1 | -0.8 | inactive
GUK1 | 1 | 0.05 | inactive
ITPKA | 1 | -0.49 | inactive
EIF2AK4 | 1 | 0.77 | inactive
PRKD2 | 1 | 1.39 | inactive
MAP4K5 | 1 | 0.43 | inactive
